Reference: PubChem BioAssay AID2551 (National Center for Advancing Translational Sciences (NCATS), 2010)
The campaign covered roughly 310,000 compounds. About 17,000 (5.5%) were called active. The inconclusive results got no clear call from the source; some entries with a clear call stand among them for comparison. Calls follow the shape of the dose curve; as a rule, active = well fitted inhibition curve with a large enough effect; inconclusive = small, poorly fitted or top-dose-only effect, or effect the other way; inactive = no such curve, though single readings can be large or run the other way. Potencies of inconclusive entries are doubtful fits and often do not repeat.

Protein sequences, listed by entry. Tags and fused reporters are not part of them. Lines headed by an entry give the natural chain unless they say otherwise; changes in a name come on top.
UniProt P51450: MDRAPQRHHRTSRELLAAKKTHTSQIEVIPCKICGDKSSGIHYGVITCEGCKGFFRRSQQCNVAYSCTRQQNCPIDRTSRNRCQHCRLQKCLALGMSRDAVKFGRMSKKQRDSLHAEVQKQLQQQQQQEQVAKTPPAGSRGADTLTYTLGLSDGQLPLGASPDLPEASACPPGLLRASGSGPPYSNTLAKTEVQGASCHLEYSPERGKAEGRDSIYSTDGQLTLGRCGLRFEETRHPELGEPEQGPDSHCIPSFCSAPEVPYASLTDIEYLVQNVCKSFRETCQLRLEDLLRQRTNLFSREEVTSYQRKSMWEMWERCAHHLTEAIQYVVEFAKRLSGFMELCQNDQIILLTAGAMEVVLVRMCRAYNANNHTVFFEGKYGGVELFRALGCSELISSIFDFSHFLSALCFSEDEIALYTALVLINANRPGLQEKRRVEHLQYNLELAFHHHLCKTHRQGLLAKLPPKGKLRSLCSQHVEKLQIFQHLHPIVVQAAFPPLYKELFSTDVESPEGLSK

Target: Nuclear receptor ROR-gamma (Mus musculus) (UniProt P51450)
Test: qHTS for inhibitors of ROR gamma transcriptional activity; also: nearly all actives have a fitted effect of over 60% in size
Settings: Drosophila S2 Gal4-RORgamma UAS-luciferase reporter, 20 h; activity change, negative = inhibition: at 53.6 µM (top of the series)
In short: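 Luciferase reporter read in Schneider cells carrying Gal4-RORγ (mouse) and UAS-Photinus luciferase; cells given compound 1 h before 700 uM copper sulfate induction, then incubated 20 h at ambient temperature.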
% is scaled to controls: 0 for no effect and ±100 for the full control effect; potency is read from the fitted curve at half-maximal effect.

Row | Compound | Potency | activity change, negative = inhibition
1 | O=C(Cc1cccs1)Nc1nc2c(s1)CCCC2 | inconclusive: 25.1 µM [inhibitor, single point] | 
2 | Cc1ccc(-c2n[nH]c(=S)n2/N=C\c2ccco2)cc1 | active: 6.31 µM | 
3 | O=C(C1CCC1)N1CCN(c2ccc(C(F)(F)F)cc2[N+](=O)[O-])CC1 | active: 7.08 µM | 
4 | CCc1cc(C(=O)N=Nc2c(O)[nH]c3c(Br)cc(Br)cc23)c2ccccc2n1 | inconclusive: 5.01 µM [inhibitor, single point] | 
5 | CN(C)S(=O)(=O)N1CCN(CC(=O)Nc2ccc(F)cc2)CC1 | inconclusive: 0.199 µM [activator, single point] | 
6 | Cn1cc(/C=C2\SC(=O)N(c3ccc(O)cc3)C2=O)c2ccccc21 | inconclusive: 0.355 µM [inhibitor, partial curve, poor fit] | 
7 | CCOc1cc(NC(=S)NCCOC)c(OCC)cc1NC(=O)c1cccs1 | active: 14.1 µM | 
8 | COC(=O)c1ccc(/C=C2\CCn3c2nc2cc(C(=O)O)ccc2c3=O)cc1 |  | inactive: -2.38%
9 | Cc1cccc(C)c1OCc1n[nH]c(=S)o1 | inconclusive: 2 µM [inhibitor, partial curve] | 
10 | COCCCn1c(O)c(/C=C2\N=C(C#N)C(=Nc3ccc(C)cc3)O2)sc1=S | inconclusive: 22.4 µM [inhibitor, single point] | 
11 | O=C(CN1CCOCC1)Nc1ncc(Cc2cccc(Cl)c2)s1 |  | inactive: -10.3%
12 | COc1cccc(/C=C/c2ccc3ccccc3n2)c1OC(C)=O | active: 2 µM | 
13 | Cc1ccc2oc(Nc3nc(-c4ccccc4)cc(=O)[nH]3)nc2c1 | active: 2.82 µM | 
14 | Cc1cc(C)c2oc(-c3ccc(C)c(NC(=S)NC(=O)c4cccs4)c3)nc2c1 | active: 2 µM | 
15 | CCOCCCNC(=S)NCCc1ccccc1 | active: 11.2 µM | 
16 | CCOC(=O)Cc1csc(NC(=S)NC(=O)c2ccc(Cl)cc2)n1 | active: 7.08 µM | 
17 | Cc1cc(NC(=O)Cc2ccccc2)c2ccccc2n1 | inconclusive: 8.91 µM [inhibitor, partial curve, poor fit] | 
18 | CCCOC1CCCN(C(=O)c2cc(COc3ccc(F)c(F)c3)on2)C1 (stereo unspecified) | inconclusive: 4.47 µM [activator, partial curve] | 
19 | O=C(O)CCCN1C(=O)/C(=C/c2ccc(-c3nc4ccccc4s3)o2)SC1=S |  | inactive: -32.7%
20 | FC(F)(F)c1ccccc1NC(=S)Nc1ccccc1 | inconclusive: 35.5 µM [inhibitor, single point] | 
21 | CCOc1cccc(-c2nc3cc(C)ccc3o2)c1 | inconclusive: 7.94 µM [inhibitor, partial curve, poor fit] | 
22 | Cc1ccc(N(C(=O)c2ccccn2)C(C(=O)NC2CCCCC2)c2ccncc2)cc1 (stereo unspecified) |  | inactive: 5.81%
23 | CCOc1ccc(NC(=O)CC2C(=O)N(CC)C(=S)N2CCN2CCOCC2)cc1 (stereo unspecified) | inconclusive: 35.5 µM [inhibitor, single point] | 
24 | N#CCSc1nc2ccccc2c(=O)n1CC1CCCC1 |  | inactive: -10.8%
25 | Cc1ccc(NC(=O)CC2CCCC2)c(Br)c1 |  | inactive: -5.58%
26 | O=C(N=Nc1c(O)[nH]c2ccccc12)c1ccc2c(c1)OCO2 | inconclusive: 4.47 µM [inhibitor, partial curve] | 

Some of the entries above, set out differently:
Row,Compound,Potency,"activity change, negative = inhibition"
6,Cn1cc(/C=C2\SC(=O)N(c3ccc(O)cc3)C2=O)c2ccccc21,"inconclusive: 0.355 µM [inhibitor, partial curve, poor fit]",
7,CCOc1cc(NC(=S)NCCOC)c(OCC)cc1NC(=O)c1cccs1,active: 14.1 µM,

Next part

Row | Compound | Potency | activity change, negative = inhibition
27 | O=C(NCCCN1CCCC1)c1cc(Sc2ccc(F)cc2)nc2ccccc12 | inconclusive: 3.16 µM [inhibitor, single point] | 
28 | O=[N+]([O-])c1cccc2cn[nH]c12 | inconclusive: 17.8 µM [activator, single point] | 
29 | CCOC(=O)Cn1c(=O)n(Cc2ccco2)c(=O)c2ccc(C(=O)NCCc3ccccc3)cc21 | inconclusive: 7.08 µM [activator, partial curve, poor fit] | 
30 | COc1ccc(S(=O)(=O)Nc2cccc(-c3ccc(N4CCCCCC4)nn3)c2)c(OC)c1 | inconclusive: 5.62 µM [activator, partial curve] | 
31 | O=S(=O)(Nc1ccccc1)c1ccc(Oc2ncc(C(F)(F)F)cc2Cl)cc1 | inconclusive: 1.58 µM [activator, partial curve] | 
32 | Cc1ccc(O)c(/C=N/NC(=O)Cc2ccc(Cl)cc2)c1 | active: 0.631 µM | 
33 | CCN(CC)CC#CCOC(c1ccccc1)c1ccccc1 |  | inactive: -9.55%
34 | CC12c3ccccc3C(c3ccccc31)C1C(=O)N(c3cccnc3)C(=O)C12 (stereo unspecified) |  | inactive: -10.6%
35 | Cc1ccccc1-n1ncc(C(C)NC(=O)c2ccco2)c1C (stereo unspecified) | inconclusive: 11.2 µM [activator, single point] | 
36 | CCOc1cc(-c2noc(CCC(=O)Nc3cccnc3)n2)ccc1OC |  | inactive: 8.76%
37 | O=C(Nc1nc(-c2ccccn2)cs1)c1cc(Cl)ccc1[N+](=O)[O-] | active: 1.12 µM | 
38 | CC(=O)Nc1ccc(S(=O)(=O)N2CCC(C(=O)NC3CCCC3)CC2)cc1 |  | inactive: -1.12%
39 | COC(=O)CNC(=O)CSc1nc2c(sc(=S)n2-c2ccccc2)c(=O)[nH]1 |  | inactive: -7.23%
40 | c1ccc(CSc2ccc(-c3ccccn3)nn2)nc1 | inconclusive: 12.6 µM [inhibitor, single point] | 
41 | COc1cc([N+](=O)[O-])ccc1NC(=S)NCc1ccccn1 | inconclusive: 11.2 µM [inhibitor, partial curve] | 
42 | COCCn1c(SCC(=O)Nc2ccc(OC)c(S(N)(=O)=O)c2)nc2ccccc21 | inconclusive: 35.5 µM [activator, single point] | 
43 | COc1ccc2c(c1)c(C(=O)N/N=C/c1cn(C)c3ccccc13)c(C)n2C | inconclusive: 10 µM [inhibitor, partial curve, poor fit] | 
44 | COc1ccc2oc(=O)c(C(=O)N3CCN(c4ccc(F)cc4)CC3)cc2c1 |  | inactive: -19.5%
45 | Cc1nc(Cl)sc1C(=O)Nc1ccc(C(F)(F)F)cc1 | inconclusive: 11.2 µM [activator, partial curve, poor fit] | 
46 | CC1CCCCN1S(=O)(=O)c1ccc(C(=O)Nc2nnc(C3CC3)o2)cc1 (stereo unspecified) | active: 0.126 µM | 
47 | CCOc1ccc2c(c1)[nH]c(=S)n2C | active: 8.91 µM | 
48 | Fc1ccc(C2CC(c3cccs3)=NN2C(=S)Nc2ccccc2)cc1 (stereo unspecified) | active: 7.94 µM | 
49 | CC1=NNC(=O)C1CCC(=O)N/N=C(\C)c1ccccc1 (stereo unspecified) | inconclusive: 3.16 µM [inhibitor, single point] | 
50 | CSc1ccc(CCNC(=O)c2ccc(CS(=O)Cc3ccc(Cl)cc3)o2)cc1 (stereo unspecified) | inconclusive: 35.5 µM [activator, single point] | 
51 | COc1cccc(-c2nc(=S)c3c(n2Cc2ccco2)CCCC3)c1 | inconclusive: 35.5 µM [inhibitor, single point] | 
52 | Cc1cc(Cl)ccc1C(=O)C1CCCN(C(=O)c2cccc(N3CCCC3=O)c2)C1 (stereo unspecified) | inconclusive: 14.1 µM [activator, single point] | 

Entries 48 to 49, quoted:
Row | Compound | Potency | activity change, negative = inhibition
48 | Fc1ccc(C2CC(c3cccs3)=NN2C(=S)Nc2ccccc2)cc1 (stereo unspecified) | active: 7.94 µM | 
49 | CC1=NNC(=O)C1CCC(=O)N/N=C(\C)c1ccccc1 (stereo unspecified) | inconclusive: 3.16 µM [inhibitor, single point] | 

Additional records

Row | Compound | Potency | activity change, negative = inhibition
53 | O=C(NCCn1cc(SCc2ccccc2)c2ccccc21)c1ccccc1F | inconclusive: 14.1 µM [activator, single point] | 
54 | CC(C)c1cc(C(=O)OCC(=O)NC(=O)NCc2ccco2)c(O)c(C(C)C)c1 | inconclusive: 35.5 µM [inhibitor, single point] | 
55 | O=C(CCC(=O)N/N=C/c1c[nH]c2ccccc12)NCc1ccccc1 |  | inactive: -1.52%
56 | O=C(Nc1ccc(F)cc1F)c1sccc1SCc1cccc(C(F)(F)F)c1 |  | inactive: -5.43%
57 | N=c1c(C(=O)NCc2ccccc2)cc2c(=O)n3ccccc3nc2n1Cc1ccco1 | inconclusive: 6.31 µM [inhibitor, single point] | 
58 | CSc1nc(N(C)NC(=O)c2ccc(F)cc2)c2ccccc2n1 | inconclusive: 31.6 µM [activator, single point] | 
59 | C/C(CC(=O)NCc1ccccc1Cl)=N/NC(=O)c1ccccn1 |  | inactive: 0.911%
60 | CN1CCc2c(n(CC(O)CN(CCO)CCO)c3ccccc23)C1=O (stereo unspecified) | inconclusive: 14.1 µM [inhibitor, single point] | 
61 | CCOC(=O)c1c(NCC(C)C)c2ccccc2[nH]c1=O | inconclusive: 35.5 µM [inhibitor, single point] | 
62 | Cc1cccc(N(C)C(=O)c2cc(S(=O)(=O)N3CCc4ccccc43)cn2C)c1 | inconclusive: 15.8 µM [activator, single point] | 
63 | CCC1(C)Cc2c(sc3nc(SC)nc(N)c23)CO1 (stereo unspecified) |  | inactive: 1.66%
64 | O=c1c(C(c2ccc(F)cc2)c2c(O)nc3n(c2=O)CCCS3)c(O)nc2n1CCCS2 |  | inactive: 15.9%
65 | O=C(CCc1ccccc1)NCCSCc1c(F)cccc1Cl | inconclusive: 2.82 µM [inhibitor, full curve] | 
66 | O=c1c2cnn(-c3ccccc3)c2nc(-c2cccs2)n1-c1ccc(Cl)cc1 |  | inactive: 21.4%
67 | O=C(N/N=C/c1ccc(Br)o1)c1cc([N+](=O)[O-])cc([N+](=O)[O-])c1 | active: 1.58 µM | 
68 | CC(C)(C)n1nc2c(c1NC(=O)COc1ccc(Cl)cc1)CS(=O)(=O)C2 |  | inactive: 17.1%
69 | O=S(=O)(c1ccccc1)N1CCN(S(=O)(=O)c2ccccc2)C1 |  | inactive: 5.04%
70 | CCOc1cccc2sc(NC(=O)CCS(=O)(=O)c3ccccc3)nc12 |  | inactive: -18.7%
71 | O=C(C1CCCN(S(=O)(=O)c2cnc[nH]2)C1)N1CCN(c2ccc(Cl)cc2)CC1 (stereo unspecified) | inconclusive: 35.5 µM [activator, single point] | 
72 | CC(C)(C)N=Cc1cc(-c2ccccc2)sc1O | inconclusive: 2.51 µM [activator, partial curve, poor fit] | 
73 | COc1ccc(N2CCN(C(=O)c3c(C)nn(-c4ccccc4)c3C)CC2)cc1 |  | inactive: 42.2%
74 | COC(=O)c1ccccc1OCC(=O)NC1CCCCC1 |  | inactive: 37.4%
75 | CCOc1cc(NC(=S)NCc2ccco2)c(OCC)cc1NC(=O)C1CC1 | active: 11.2 µM | 
76 | CCOc1ccc(NC(=S)Nc2ccccc2C2CC2)cc1 | active: 2.82 µM | 

Entries above containing a cyano group (2):
Row | Compound | Potency | activity change, negative = inhibition
10 | COCCCn1c(O)c(/C=C2\N=C(C#N)C(=Nc3ccc(C)cc3)O2)sc1=S | inconclusive: 22.4 µM [inhibitor, single point] | 
24 | N#CCSc1nc2ccccc2c(=O)n1CC1CCCC1 |  | inactive: -10.8%
